Data from the supplement of paper PMC4604168 (melanoma cell lines).
The list shows a part of the results. Repeats are few or missing, and single values can be far off.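 Imaging used 1,536-well plates; nuclei positive for cleaved PARP by antibody were divided by total DNA-stained nuclei to yield the apoptosis fraction. Doses for screening kept most cells viable, and cell lines differ markedly in resting and induced cleaved-PARP levels.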

Experiments:
Assay in all cases: cleaved PARP positive nuclei fraction relative to DMSO control; melanoma cells; higher = more apoptosis
Settings in all cases: library dose: low library concentration; 72 h
501Mel = system: 501Mel
A101D = system: A101D
A2058 = system: A2058
A375 = system: A375
C32 = system: C32
CBRC008 = system: CBRC008 (line from a melanoma biopsy)
CBRC014 = system: CBRC014 (line from a melanoma biopsy)
CBRC016 = system: CBRC016 (line from a melanoma biopsy)
CBRC017 = system: CBRC017 (line from a melanoma biopsy)
CBRC034 = system: CBRC034 (line from a melanoma biopsy)
COLO792 = system: COLO792
COLO800 = system: COLO800
COLO829 = system: COLO829
G361 = system: G361
IPC-298 = system: IPC-298
IST-MEL1 = system: IST-MEL1
LB2518-MEL = system: LB2518-MEL
LOXIMVI = system: LOXIMVI
MEL-HO = system: MEL-HO

Structure (SMILES) | cleaved PARP positive nuclei fraction (501Mel) [%] | cleaved PARP positive nuclei fraction (A101D) [%] | cleaved PARP positive nuclei fraction (A2058) [%] | cleaved PARP positive nuclei fraction (A375) [%] | cleaved PARP positive nuclei fraction (C32) [%] | cleaved PARP positive nuclei fraction (CBRC008) [%] | cleaved PARP positive nuclei fraction (CBRC014) [%] | cleaved PARP positive nuclei fraction (CBRC016) [%] | cleaved PARP positive nuclei fraction (CBRC017) [%] | cleaved PARP positive nuclei fraction (CBRC034) [%] | cleaved PARP positive nuclei fraction (COLO792) [%] | cleaved PARP positive nuclei fraction (COLO800) [%] | cleaved PARP positive nuclei fraction (COLO829) [%] | cleaved PARP positive nuclei fraction (G361) [%] | cleaved PARP positive nuclei fraction (IPC-298) [%] | cleaved PARP positive nuclei fraction (IST-MEL1) [%] | cleaved PARP positive nuclei fraction (LB2518-MEL) [%] | cleaved PARP positive nuclei fraction (LOXIMVI) [%] | cleaved PARP positive nuclei fraction (MEL-HO) [%]
Nc1nc(F)nc2c1ncn2[C@@H]1O[C@H](CO)[C@@H](O)[C@@H]1O [fludarabine] + Cn1c(Nc2ccc(C(F)(F)F)cc2)nc2cc(Oc3ccnc(-c4ncc(C(F)(F)F)[nH]4)c3)ccc21 [CHIR265] (first compound 0.2 µM, partner dose 0.08 µM) | 22000 | 319 | 185 | 3330 | 91.4 | 63.1 | 111 | 86.9 | 156 | 131 | 57.5 | 83.3 | 94.8 | 152 | 206 | 153 | 162 | 184 | 51
O=C(O)[C@@H]1[O][Sb](=[O])([O][Sb]2(=[O])[O][C@H]([C@H](O)CO)[C@H](O)[C@H](C(=O)O)[O]2)[O][C@H]([C@H](O)CO)[C@@H]1O (stereo not given in full) [stibogluconate] + COCC[n+]1c2c(n(Cc3cnccn3)c1C)C(=O)c1ccccc1C2=O [YM155] (first compound 2 µM, partner dose 0.0004 µM) | 644 | 48.5 | 64.6 | 115 | 70.7 | 173 | 106 | 102 | 89.2 | 58.4 | 125 | 126 | 73.9 | 32.5 | 119 | 31.7 | 108 | 44.4 | 60.5
Cn1c(=O)n(-c2ccc(C(C)(C)C#N)cc2)c2c3cc(-c4cnc5ccccc5c4)ccc3ncc21 + CC(C)C[C@H](NC(=O)[C@H](Cc1ccccc1)NC(=O)c1cnccn1)B(O)O [Bortezomib] (first compound 0.004 µM, partner dose 0.001 µM) | 147 | 102 | 99.8 | 278 | 38.3 | 406 | 170 | 317 | 143 | 153 | 125 | 126 | 358 | 986 | 249 | 291 | 108 | 292 | 63.2
CC(C)C[C@H](NC(=O)[C@H](Cc1ccccc1)NC(=O)c1cnccn1)B(O)O [Bortezomib] + Nc1cccc2c1CN(C1CCC(=O)NC1=O)C2=O [lenalidomide] (first compound 0.001 µM, partner dose 1 µM) | 169 | 473 | 76.7 | 84.3 | 74.8 | 536 | 765 | 305 | 652 | 383 | 69.7 | 64.5 | 185 | 4240 | 62.7 | 197 | 459 | 70.1 | 114
C=C(c1ccc(C(=O)O)cc1)c1cc2c(cc1C)C(C)(C)CCC2(C)C [Bexarotene] + COCC[n+]1c2c(n(Cc3cnccn3)c1C)C(=O)c1ccccc1C2=O [YM155] (first compound 2 µM, partner dose 0.0004 µM) | 308 | 45.1 | 107 | 23.4 | 28.6 | 321 | 120 | 76.9 | 92.8 | 24.4 | 83.2 | 102 | 84.8 | 158 | 79.4 | 34.2 | 101 | 128 | 63.4
CC(C)C[C@H](NC(=O)[C@H](Cc1ccccc1)NC(=O)c1cnccn1)B(O)O [Bortezomib] + O=C(O)[C@@H]1[O][Sb](=[O])([O][Sb]2(=[O])[O][C@H]([C@H](O)CO)[C@H](O)[C@H](C(=O)O)[O]2)[O][C@H]([C@H](O)CO)[C@@H]1O [stibogluconate] (first compound 0.001 µM, partner dose 2 µM) | 604 | 269 | 57 | 105 | 79.4 | 388 | 176 | 370 | 191 | 241 | 60.4 | 53.9 | 191 | 1320 | 92.5 | 65.2 | 149 | 128 | 111
C[C@@H](Oc1cc(-c2cnn(C3CCNCC3)c2)cnc1N)c1c(Cl)ccc(F)c1Cl [Crizotinib] + C=C(c1ccc(C(=O)O)cc1)c1cc2c(cc1C)C(C)(C)CCC2(C)C [Bexarotene] (first compound 0.2 µM, partner dose 2 µM) | 202 | 22.5 | 58.4 | 147 | 72.6 | 150 | 108 | 133 | 210 | 72.1 | 147 | 65.2 | 83.2 | 150 | 48.8 | 268 | 189 | 106 | 63.7
CN1CCN(c2ccc3nc(-c4c(N)c5c(F)cccc5[nH]c4=O)[nH]c3c2)CC1 [Dovitinib] + CO[C@H]1C[C@@H]2CC[C@@H](C)[C@@](O)(O2)C(=O)C(=O)N2CCCC[C@H]2C(=O)O[C@H]([C@H](C)C[C@@H]2CC[C@@H](OCCO)[C@H](OC)C2)CC(=O)[C@H](C)/C=C(\C)[C@@H](O)[C@@H](OC)C(=O)[C@H](C)C[C@H](C)/C=C/C=C/C=C/1C [everolimus] (first compound 0.1 µM, partner dose 0.02 µM) | 894 | 109 | 153 | 682 | 264 | 224 | 91.7 | 71.9 | 142 | 68.4 | 257 | 39.4 | 160 | 21.9 | 123 | 161 | 369 | 87.2 | 124
CC(C)C[C@H](NC(=O)[C@H](Cc1ccccc1)NC(=O)c1cnccn1)B(O)O [Bortezomib] + OCc1c[nH]c2ccccc12 [Indole-3-carbinol] (first compound 0.001 µM, partner dose 0.8 µM) | 706 | 1950 | 69.8 | 150 | 91.4 | 749 | 175 | 372 | 93.2 | 242 | 83.7 | 72.7 | 65.6 | 1210 | 51 | 292 | 234 | 134 | 42.2
CNC(=O)c1cc(Oc2ccc(NC(=O)Nc3ccc(Cl)c(C(F)(F)F)c3)cc2)ccn1 [sorafenib] + Nc1nc(F)nc2c1ncn2[C@@H]1O[C@H](CO)[C@@H](O)[C@@H]1O [fludarabine] (first compound 0.4 µM, partner dose 0.2 µM) | 10700 | 134 | 121 | 2460 | 60.6 | 101 | 96.9 | 95.5 | 94.5 | 98.6 | 57.8 | 106 | 71.9 | 96.1 | 97.5 | 196 | 113 | 155 | 211
CO[C@H]1C[C@@H]2CC[C@@H](C)[C@@](O)(O2)C(=O)C(=O)N2CCCC[C@H]2C(=O)O[C@H]([C@H](C)C[C@@H]2CC[C@@H](OCCO)[C@H](OC)C2)CC(=O)[C@H](C)/C=C(\C)[C@@H](O)[C@@H](OC)C(=O)[C@H](C)C[C@H](C)/C=C/C=C/C=C/1C [everolimus] + COc1ccc(Cl)c(Nc2nc3ccccc3nc2NS(=O)(=O)c2cccc(NC(=O)C(C)(C)N)c2)c1 [XL147] (first compound 0.02 µM, partner dose 0.8 µM) | 357 | 76 | 105 | 756 | 75.1 | 257 | 117 | 96.2 | 113 | 51.9 | 224 | 128 | 49.6 | 207 | 58.5 | 83 | 143 | 92.5 | 196
CC(C)C[C@H](NC(=O)[C@H](Cc1ccccc1)NC(=O)c1cnccn1)B(O)O [Bortezomib] + Cn1nnc2c(C(N)=O)ncn2c1=O [temozolomide] (first compound 0.001 µM, partner dose 2 µM) | 720 | 580 | 144 | 195 | 81.4 | 3440 | 875 | 893 | 4950 | 733 | 74.7 | 104 | 152 | 7110 | 182 | 102 | 1140 | 323 | 220
Cc1cc(Nc2cc(N3CCN(C)CC3)nc(/C=C/c3ccccc3)n2)n[nH]1 + CC(C)C[C@H](NC(=O)[C@H](Cc1ccccc1)NC(=O)c1cnccn1)B(O)O [Bortezomib] (first compound 0.04 µM, partner dose 0.001 µM) | 599 | 341 | 290 | 179 | 66.7 | 578 | 128 | 214 | 178 | 78.6 | 155 | 73.9 | 157 | 619 | 213 | 102 | 510 | 154 | 80.5
CC(C)C[C@H](NC(=O)[C@H](Cc1ccccc1)NC(=O)c1cnccn1)B(O)O [Bortezomib] + CC(=O)c1c(C)c2cnc(Nc3ccc(N4CCNCC4)cn3)nc2n(C2CCCC2)c1=O [palbociclib] (first compound 0.001 µM, partner dose 0.04 µM) | 9520 | 1110 | 111 | 114 | 104 | 2430 | 203 | 3610 | 387 | 1150 | 141 | 155 | 177 | 6370 | 235 | 91.1 | 517 | 430 | 238
CN1CCN(c2ccc3nc(-c4c(N)c5c(F)cccc5[nH]c4=O)[nH]c3c2)CC1 [Dovitinib] + C=C(c1ccc(C(=O)O)cc1)c1cc2c(cc1C)C(C)(C)CCC2(C)C [Bexarotene] (first compound 0.1 µM, partner dose 2 µM) | 133 | 90.4 | 289 | 253 | 90.4 | 149 | 112 | 88.3 | 151 | 97.2 | 80.5 | 59.7 | 162 | 50.9 | 91.9 | 202 | 259 | 101 | 228

Quoted from the listing:
cleaved PARP positive nuclei fraction (CBRC017) [%], C=C(c1ccc(C(=O)O)cc1)c1cc2c(cc1C)C(C)(C)CCC2(C)C [Bexarotene] + COCC[n+]1c2c(n(Cc3cnccn3)c1C)C(=O)c1ccccc1C2=O [YM155] (first compound 2 µM, partner dose 0.0004 µM) reads 92.8
cleaved PARP positive nuclei fraction (IST-MEL1) [%], O=C(O)[C@@H]1[O][Sb](=[O])([O][Sb]2(=[O])[O][C@H]([C@H](O)CO)[C@H](O)[C@H](C(=O)O)[O]2)[O][C@H]([C@H](O)CO)[C@@H]1O (stereo not given in full) [stibogluconate] + COCC[n+]1c2c(n(Cc3cnccn3)c1C)C(=O)c1ccccc1C2=O [YM155] (first compound 2 µM, partner dose 0.0004 µM) reads 31.7
